Results are given in words; binding and its absence hold for the method and conditions named. In cells and extracts the contact can be indirect. These calls come from enrichment with a bait or labelling near it, and not all partners need be listed. For part of these data: Tags and fused reporters may be left off the sequences shown.
B1: Sni445 (protein, UniProt P53952 1-270)
chain: MSEFKIVSRKDLYNEGEGLGEDYDSNSSSKNNSEHVEVLVPPTEFEFVEVERTDSSLDLKESNNSAHEQKEEKQEEFEFPLFSFGVVEASTSPAQEEQGSSTQEKDTPQTEVSLMKISLKEPEEEIINQERPKDYYFASYSADQKLQFQQSSIDYDVIIQESTKILEDDLRIRDKWPYCQGRIIDLYKHNARIELEQQKELKIKKRRPGQKQRAAKKLALERTKERDTKAREIKKQLKKKFHKRGGKKNKKKVPLNPLAKAGSTPKFRTE
B2: Utp22 (protein, UniProt P53254 1-1237)
chain: MATSVKRKASETSDQNIVKVQKKHSTQDSTTDNGSKENDHSSQAINERTVPEQENDESDTSPESNEVATNTAATRHNGKVTATESYDIHIARETAELFKSNIFKLQIDELLEQVKLKQKHVLKVEKFLHKLYDILQEIPDWEEKSLAEVDSFFKNKIVSVPFVDPKPIPQNTNYKFNYKKPDISLIGSFALKAGIYQPNGSSIDTLLTMPKELFEKKDFLNFRCLHKRSVYLAYLTHHLLILLKKDKLDSFLQLEYSYFDNDPLLPILRISCSKPTGDSLSDYNFYKTRFSINLLIGFPYKVFEPKKLLPNRNCIRIAQESKEQSLPATPLYNFSVLSSSTHENYLKYLYKTKKQTESFVEATVLGRLWLQQRGFSSNMSHSGSLGGFGTFEFTILMAALLNGGGINSNKILLHGFSSYQLFKGVIKYLATMDLCHDGHLQFHSNPENSSSSPASKYIDEGFQTPTLFDKSTKVNILTKMTVSSYQILKEYAGETLRMLNNVVQDQFSNIFLTNISRFDNLKYDLCYDVQLPLGKYNNLETSLAATFGSMERVKFITLENFLAHKITNVARYALGDRIKYIQIEMVGQKSDFPITKRKVYSNTGGNHFNFDFVRVKLIVNPSECDKLVTKGPAHSETMSTEAAVFKNFWGIKSSLRRFKDGSITHCCVWSTSSSEPIISSIVNFALQKHVSKKAQISNETIKKFHNFLPLPNLPSSAKTSVLNLSSFFNLKKSFDDLYKIIFQMKLPLSVKSILPVGSAFRYTSLCQPVPFAYSDPDFFQDVILEFETSPKWPDEITSLEKAKTAFLLKIQEELSANSSTYRSFFSRDESIPYNLEIVTLNILTPEGYGFKFRVLTERDEILYLRAIANARNELKPELEATFLKFTAKYLASVRHTRTLENISHSYQFYSPVVRLFKRWLDTHLLLGHITDELAELIAIKPFVDPAPYFIPGSLENGFLKVLKFISQWNWKDDPLILDLVKPEDDIRDTFETSIGAGSELDSKTMKKLSERLTLAQYKGIQMNFTNLRNSDPNGTHLQFFVASKNDPSGILYSSGIPLPIATRLTALAKVAVNLLQTHGLNQQTINLLFTPGLKDYDFVVDLRTPIGLKSSCGILSATEFKNITNDQAPSNFPENLNDLSEKMDPTYQLVKYLNLKYKNSLILSSRKYIGVNGGEKGDKNVITGLIKPLFKGAHKFRVNLDCNVKPVDDENVILNKEAIFHEIAAFGNDMVINFETD
B3: Nop1, P15646 1-327 (enzyme)
chain: MSFRPGSRGGSRGGSRGGFGGRGGSRGGARGGSRGGFGGRGGSRGGARGGSRGGFGGRGGSRGGARGGSRGGRGGAAGGARGGAKVVIEPHRHAGVYIARGKEDLLVTKNMAPGESVYGEKRISVEEPSKEDGVPPTKVEYRVWNPFRSKLAAGIMGGLDELFIAPGKKVLYLGAASGTSVSHVSDVVGPEGVVYAVEFSHRPGRELISMAKKRPNIIPIIEDARHPQKYRMLIGMVDCVFADVAQPDQARIIALNSHMFLKDQGGVVISIKANCIDSTVDAETVFAREVQKLREERIKPLEQLTLEPYERDHCIVVGRYMRSGLKK

By UniProt entry, the sequences of proteins in these tests, tags left out.
UniProt P39990: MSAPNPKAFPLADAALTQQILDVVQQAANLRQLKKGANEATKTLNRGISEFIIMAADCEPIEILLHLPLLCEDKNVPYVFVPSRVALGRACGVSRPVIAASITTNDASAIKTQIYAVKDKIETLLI
UniProt Q12460: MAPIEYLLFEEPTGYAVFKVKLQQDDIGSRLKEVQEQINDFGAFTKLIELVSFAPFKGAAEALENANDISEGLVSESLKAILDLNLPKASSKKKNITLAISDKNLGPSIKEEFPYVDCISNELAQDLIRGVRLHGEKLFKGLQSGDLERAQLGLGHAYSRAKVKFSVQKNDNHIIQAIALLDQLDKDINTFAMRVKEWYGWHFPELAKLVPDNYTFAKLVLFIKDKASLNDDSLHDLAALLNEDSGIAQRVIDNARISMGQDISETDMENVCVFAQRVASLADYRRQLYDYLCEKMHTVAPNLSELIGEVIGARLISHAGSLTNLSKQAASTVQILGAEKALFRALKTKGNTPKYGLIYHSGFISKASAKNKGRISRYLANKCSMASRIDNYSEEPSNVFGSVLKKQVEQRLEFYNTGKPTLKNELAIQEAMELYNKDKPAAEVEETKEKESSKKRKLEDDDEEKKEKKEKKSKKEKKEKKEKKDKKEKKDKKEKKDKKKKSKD

Experiments:
[1] = target: T1, Sni445-TurboID (S. cerevisiae) (UniProt P53952); test: proximity labelling; TurboID: Sni445-TurboID expressed from the CUP1 promoter in yeast; biotinylated proteins purified on streptavidin beads and identified by MS; enrichment against GFP-TurboID and NLS-GFP-TurboID controls
T1 sequence: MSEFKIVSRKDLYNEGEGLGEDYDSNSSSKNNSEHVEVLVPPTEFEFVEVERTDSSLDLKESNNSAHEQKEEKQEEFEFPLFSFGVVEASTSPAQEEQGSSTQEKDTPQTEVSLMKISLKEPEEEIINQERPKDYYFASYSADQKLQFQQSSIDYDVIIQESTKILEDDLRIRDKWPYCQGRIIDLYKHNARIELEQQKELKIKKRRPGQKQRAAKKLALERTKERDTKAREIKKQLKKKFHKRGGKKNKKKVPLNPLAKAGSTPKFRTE

[2] = target: T2, Sni445-TAP (S. cerevisiae) (UniProt P53952); test: affinity purification with mass spectrometry; tandem affinity purification of chromosomally TAP-tagged baits from yeast lysate (IgG Sepharose, TEV elution, Calmodulin Sepharose, EGTA elution; 50 mM Tris-HCl pH 7.5, 100 mM NaCl, 1.5 mM MgCl2, 0.075% NP-40); label-free MS, three replicates; Pwp2-TAP and Enp1-TAP also from sni445 deletion strains
T2 sequence: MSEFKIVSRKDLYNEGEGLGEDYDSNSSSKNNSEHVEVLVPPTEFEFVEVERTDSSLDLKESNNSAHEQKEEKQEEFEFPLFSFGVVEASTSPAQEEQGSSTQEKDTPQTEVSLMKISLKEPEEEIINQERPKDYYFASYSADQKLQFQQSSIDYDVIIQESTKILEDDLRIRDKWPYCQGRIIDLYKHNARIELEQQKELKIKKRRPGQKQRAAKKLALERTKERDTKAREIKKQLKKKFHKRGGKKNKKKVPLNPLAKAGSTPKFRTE

[3] = target: T3, Sni445-FLAG (S. cerevisiae) (UniProt P53952); test: affinity purification with mass spectrometry; one-step FLAG purification of Sni445-FLAG from yeast lysate (Anti-FLAG M2 Affinity Gel, FLAG-peptide elution; 50 mM Tris-HCl pH 7.5, 100 mM NaCl, 1.5 mM MgCl2, 0.075% NP-40); label-free MS, three replicates
T3 sequence: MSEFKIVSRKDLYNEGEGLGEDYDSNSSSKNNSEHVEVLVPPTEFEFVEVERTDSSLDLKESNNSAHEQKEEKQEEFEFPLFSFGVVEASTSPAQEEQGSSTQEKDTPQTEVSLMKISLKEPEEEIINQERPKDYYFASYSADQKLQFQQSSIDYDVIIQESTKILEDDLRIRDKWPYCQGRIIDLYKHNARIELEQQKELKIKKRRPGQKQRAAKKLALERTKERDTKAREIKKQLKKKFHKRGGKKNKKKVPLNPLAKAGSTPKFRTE

[4] = target: T2, Sni445-TAP (S. cerevisiae); test: affinity purification with mass spectrometry; split-tag two-step purification: first Sni445-TAP on IgG Sepharose with TEV elution, then Nop58-FLAG on anti-FLAG M2 agarose with 3x Flag peptide elution; SDS-PAGE, Coomassie, bands identified by MS
[5] = target: Nop58-FLAG (S. cerevisiae) (UniProt Q12499); test: as above
Enp1-TAP (S. cerevisiae) = target: T4, Enp1-TAP (S. cerevisiae) (UniProt P38333); test: affinity purification with mass spectrometry; tandem affinity purification of chromosomally TAP-tagged baits from yeast lysate (IgG Sepharose, TEV elution, Calmodulin Sepharose, EGTA elution; 50 mM Tris-HCl pH 7.5, 100 mM NaCl, 1.5 mM MgCl2, 0.075% NP-40); label-free MS, three replicates; Pwp2-TAP and Enp1-TAP also from sni445 deletion strains
T4 sequence: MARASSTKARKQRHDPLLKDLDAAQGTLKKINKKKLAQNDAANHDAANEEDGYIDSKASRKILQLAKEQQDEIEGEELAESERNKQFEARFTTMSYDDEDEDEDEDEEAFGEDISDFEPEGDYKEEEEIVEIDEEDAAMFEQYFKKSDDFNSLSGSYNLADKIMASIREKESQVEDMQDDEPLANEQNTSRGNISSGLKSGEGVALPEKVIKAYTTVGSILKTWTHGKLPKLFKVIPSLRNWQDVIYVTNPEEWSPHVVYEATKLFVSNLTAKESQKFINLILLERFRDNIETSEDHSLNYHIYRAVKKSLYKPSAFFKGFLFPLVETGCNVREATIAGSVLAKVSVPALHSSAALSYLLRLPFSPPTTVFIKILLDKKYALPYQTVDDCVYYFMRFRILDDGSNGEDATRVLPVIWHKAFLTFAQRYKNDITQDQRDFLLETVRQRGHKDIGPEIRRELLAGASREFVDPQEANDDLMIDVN

Pwp2-TAP (S. cerevisiae) = target: T5, Pwp2-TAP (S. cerevisiae) (UniProt P25635); test: as above
T5 sequence: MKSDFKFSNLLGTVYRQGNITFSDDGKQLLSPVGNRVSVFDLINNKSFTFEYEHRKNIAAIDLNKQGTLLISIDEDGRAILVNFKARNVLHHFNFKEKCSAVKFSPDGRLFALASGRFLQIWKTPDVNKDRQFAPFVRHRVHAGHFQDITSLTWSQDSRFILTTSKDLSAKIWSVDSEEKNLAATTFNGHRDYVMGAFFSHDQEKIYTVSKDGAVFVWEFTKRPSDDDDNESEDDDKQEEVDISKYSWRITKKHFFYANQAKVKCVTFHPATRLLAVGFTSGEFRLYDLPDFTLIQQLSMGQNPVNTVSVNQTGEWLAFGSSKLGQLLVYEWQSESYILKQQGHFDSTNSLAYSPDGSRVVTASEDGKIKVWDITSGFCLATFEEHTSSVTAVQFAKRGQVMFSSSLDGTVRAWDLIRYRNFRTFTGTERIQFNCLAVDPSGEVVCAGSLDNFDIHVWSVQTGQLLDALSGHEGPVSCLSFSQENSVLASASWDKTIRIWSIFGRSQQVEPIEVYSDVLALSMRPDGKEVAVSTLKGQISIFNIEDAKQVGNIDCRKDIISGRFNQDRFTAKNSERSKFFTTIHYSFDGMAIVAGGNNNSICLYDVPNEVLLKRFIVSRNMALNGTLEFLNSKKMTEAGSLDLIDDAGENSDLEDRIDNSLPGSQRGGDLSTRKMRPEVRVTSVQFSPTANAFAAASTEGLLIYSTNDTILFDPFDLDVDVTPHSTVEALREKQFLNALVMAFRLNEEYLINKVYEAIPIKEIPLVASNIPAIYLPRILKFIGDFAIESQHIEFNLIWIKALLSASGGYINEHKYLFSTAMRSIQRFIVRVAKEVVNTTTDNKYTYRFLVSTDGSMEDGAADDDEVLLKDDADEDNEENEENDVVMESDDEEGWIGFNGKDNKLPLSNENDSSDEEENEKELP

[6] = target: T2, Sni445-TAP (S. cerevisiae); test: as above; remark: listed apart in the source
[7] = target: T6, Nop58-FLAG (S. cerevisiae), Q12499; test: affinity purification with mass spectrometry; split-tag two-step purification: first Sni445-TAP on IgG Sepharose with TEV elution, then Nop58-FLAG on anti-FLAG M2 agarose with 3x Flag peptide elution; SDS-PAGE, Coomassie, bands identified by MS; conditions: remark: other sources report otherwise
T6 chain: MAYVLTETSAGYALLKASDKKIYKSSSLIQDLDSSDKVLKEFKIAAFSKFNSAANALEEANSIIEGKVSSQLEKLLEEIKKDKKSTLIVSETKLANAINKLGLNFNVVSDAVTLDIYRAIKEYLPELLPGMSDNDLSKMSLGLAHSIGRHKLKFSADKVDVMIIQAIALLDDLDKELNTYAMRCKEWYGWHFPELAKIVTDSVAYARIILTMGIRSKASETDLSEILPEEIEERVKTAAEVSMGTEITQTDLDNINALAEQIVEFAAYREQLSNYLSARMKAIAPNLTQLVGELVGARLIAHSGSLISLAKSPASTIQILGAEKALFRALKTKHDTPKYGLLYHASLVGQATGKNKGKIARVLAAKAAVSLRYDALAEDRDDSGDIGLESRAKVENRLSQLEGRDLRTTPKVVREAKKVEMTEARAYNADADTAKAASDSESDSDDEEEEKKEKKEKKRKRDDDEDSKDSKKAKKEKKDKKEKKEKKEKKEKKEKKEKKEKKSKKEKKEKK

Row | Molecule | binding [1] | binding [2] | binding [3] | binding [4] | also measured
1 | Nop58 (from UniProt Q12499 1-511) | binds | binds | binds | – | –
2 | Snu13 (from UniProt P39990 1-126) | – | binds | binds | – | –
3 | Nop1 (from UniProt P15646 1-327) (enzyme) | binds | binds | binds | binds | –
4 | Nop56 (from UniProt Q12460 1-504) | binds | binds | binds | binds | binding [5]: binds
5 | B1 | – | – | – | – | binding (Enp1-TAP (S. cerevisiae)): binds weakly; binding (Pwp2-TAP (S. cerevisiae)): binds
6 | B2 | – | – | binds | binds | binding [5]: binds; binding [6]: binds
7 | B3 | – | – | – | – | binding [7]: binds

Reference: PMC12848939
